Test results from the supplement of paper PMC10849652.
Some of the results follow. Residues, ends and D or L forms follow the SMILES beside them. *: point of attachment. Cbz = O=C(OCc1ccccc1)*

By UniProt entry, the sequences of proteins in these tests, tags left out. Where a name states a change or a piece, a line headed by the entry shows the natural chain unless it says otherwise.
UniProt Q9BTZ2: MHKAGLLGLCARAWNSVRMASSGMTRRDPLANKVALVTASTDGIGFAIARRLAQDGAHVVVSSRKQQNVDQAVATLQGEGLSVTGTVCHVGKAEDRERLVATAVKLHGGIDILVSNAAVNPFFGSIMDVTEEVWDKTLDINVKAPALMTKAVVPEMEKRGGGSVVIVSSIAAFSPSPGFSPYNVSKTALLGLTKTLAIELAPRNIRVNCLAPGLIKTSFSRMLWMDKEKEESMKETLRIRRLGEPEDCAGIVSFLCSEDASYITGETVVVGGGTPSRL
UniProt O60832: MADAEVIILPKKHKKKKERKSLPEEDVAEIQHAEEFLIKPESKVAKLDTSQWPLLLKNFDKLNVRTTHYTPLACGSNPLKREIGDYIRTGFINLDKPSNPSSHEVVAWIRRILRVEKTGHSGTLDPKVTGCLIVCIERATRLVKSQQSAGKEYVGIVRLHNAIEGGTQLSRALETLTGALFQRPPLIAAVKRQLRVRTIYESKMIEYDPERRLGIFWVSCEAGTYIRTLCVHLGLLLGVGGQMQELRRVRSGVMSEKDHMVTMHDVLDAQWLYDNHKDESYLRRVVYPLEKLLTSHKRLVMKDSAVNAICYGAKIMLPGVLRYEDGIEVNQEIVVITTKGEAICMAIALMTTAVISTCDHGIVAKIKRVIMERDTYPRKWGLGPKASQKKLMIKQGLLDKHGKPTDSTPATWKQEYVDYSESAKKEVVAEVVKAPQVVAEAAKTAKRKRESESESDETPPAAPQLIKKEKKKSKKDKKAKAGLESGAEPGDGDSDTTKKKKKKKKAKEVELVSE
UniProt Q9Y394: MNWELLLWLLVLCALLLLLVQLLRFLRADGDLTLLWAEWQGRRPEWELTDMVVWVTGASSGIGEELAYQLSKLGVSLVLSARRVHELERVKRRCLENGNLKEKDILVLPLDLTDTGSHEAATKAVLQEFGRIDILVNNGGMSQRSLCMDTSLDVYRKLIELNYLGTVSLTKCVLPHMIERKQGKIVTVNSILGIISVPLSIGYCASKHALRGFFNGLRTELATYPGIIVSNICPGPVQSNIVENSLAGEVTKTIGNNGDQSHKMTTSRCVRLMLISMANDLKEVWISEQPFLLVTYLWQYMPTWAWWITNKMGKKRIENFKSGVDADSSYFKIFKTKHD
UniProt Q5VZ89: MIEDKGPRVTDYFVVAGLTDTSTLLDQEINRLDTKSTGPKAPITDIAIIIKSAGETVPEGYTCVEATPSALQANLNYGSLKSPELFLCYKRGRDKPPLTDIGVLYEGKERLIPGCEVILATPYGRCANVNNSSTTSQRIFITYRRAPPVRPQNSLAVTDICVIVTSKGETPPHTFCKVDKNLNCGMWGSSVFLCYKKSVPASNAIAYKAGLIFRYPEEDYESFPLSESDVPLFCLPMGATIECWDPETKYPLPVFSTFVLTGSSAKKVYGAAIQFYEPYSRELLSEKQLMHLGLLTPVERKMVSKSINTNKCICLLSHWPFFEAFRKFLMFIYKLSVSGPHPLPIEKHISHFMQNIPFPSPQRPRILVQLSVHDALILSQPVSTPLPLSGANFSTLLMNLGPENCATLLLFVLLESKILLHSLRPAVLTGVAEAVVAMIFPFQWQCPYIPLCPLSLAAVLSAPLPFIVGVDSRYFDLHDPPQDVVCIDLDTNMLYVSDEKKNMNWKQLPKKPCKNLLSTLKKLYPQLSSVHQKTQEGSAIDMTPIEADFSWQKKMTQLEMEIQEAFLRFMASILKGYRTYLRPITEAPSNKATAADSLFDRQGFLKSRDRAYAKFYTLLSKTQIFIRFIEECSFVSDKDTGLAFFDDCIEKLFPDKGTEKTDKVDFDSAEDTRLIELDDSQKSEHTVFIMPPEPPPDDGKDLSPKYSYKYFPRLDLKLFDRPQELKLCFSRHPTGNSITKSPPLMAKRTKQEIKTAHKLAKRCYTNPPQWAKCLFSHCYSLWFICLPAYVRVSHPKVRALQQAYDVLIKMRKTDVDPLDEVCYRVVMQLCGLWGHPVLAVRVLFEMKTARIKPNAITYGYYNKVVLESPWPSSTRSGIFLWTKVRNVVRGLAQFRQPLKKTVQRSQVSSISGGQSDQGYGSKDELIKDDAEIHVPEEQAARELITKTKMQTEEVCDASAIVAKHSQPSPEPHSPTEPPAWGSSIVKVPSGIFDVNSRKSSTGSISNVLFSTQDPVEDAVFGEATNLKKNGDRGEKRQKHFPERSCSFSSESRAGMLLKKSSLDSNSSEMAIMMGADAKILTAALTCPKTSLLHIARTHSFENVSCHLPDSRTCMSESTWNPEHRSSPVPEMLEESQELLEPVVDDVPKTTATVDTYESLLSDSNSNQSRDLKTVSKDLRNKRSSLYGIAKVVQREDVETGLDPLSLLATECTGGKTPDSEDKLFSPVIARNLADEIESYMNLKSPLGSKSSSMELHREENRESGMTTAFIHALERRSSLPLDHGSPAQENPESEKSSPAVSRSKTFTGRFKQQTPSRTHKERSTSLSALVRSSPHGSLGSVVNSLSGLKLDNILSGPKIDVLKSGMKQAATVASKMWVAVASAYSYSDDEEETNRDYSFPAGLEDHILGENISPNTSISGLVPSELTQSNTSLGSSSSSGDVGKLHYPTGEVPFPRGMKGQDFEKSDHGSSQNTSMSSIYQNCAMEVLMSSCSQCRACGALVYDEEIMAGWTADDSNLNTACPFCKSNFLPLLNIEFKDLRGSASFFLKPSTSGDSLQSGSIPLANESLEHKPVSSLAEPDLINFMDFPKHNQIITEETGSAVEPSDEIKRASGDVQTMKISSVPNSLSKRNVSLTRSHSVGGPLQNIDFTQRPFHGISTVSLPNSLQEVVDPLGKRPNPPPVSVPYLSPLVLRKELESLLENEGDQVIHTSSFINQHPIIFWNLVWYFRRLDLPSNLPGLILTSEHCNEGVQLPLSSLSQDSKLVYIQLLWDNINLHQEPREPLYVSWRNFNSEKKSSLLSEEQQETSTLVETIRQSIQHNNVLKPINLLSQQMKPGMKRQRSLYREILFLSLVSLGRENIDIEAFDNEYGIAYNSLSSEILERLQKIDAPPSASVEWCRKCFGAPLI
UniProt Q5T1V6: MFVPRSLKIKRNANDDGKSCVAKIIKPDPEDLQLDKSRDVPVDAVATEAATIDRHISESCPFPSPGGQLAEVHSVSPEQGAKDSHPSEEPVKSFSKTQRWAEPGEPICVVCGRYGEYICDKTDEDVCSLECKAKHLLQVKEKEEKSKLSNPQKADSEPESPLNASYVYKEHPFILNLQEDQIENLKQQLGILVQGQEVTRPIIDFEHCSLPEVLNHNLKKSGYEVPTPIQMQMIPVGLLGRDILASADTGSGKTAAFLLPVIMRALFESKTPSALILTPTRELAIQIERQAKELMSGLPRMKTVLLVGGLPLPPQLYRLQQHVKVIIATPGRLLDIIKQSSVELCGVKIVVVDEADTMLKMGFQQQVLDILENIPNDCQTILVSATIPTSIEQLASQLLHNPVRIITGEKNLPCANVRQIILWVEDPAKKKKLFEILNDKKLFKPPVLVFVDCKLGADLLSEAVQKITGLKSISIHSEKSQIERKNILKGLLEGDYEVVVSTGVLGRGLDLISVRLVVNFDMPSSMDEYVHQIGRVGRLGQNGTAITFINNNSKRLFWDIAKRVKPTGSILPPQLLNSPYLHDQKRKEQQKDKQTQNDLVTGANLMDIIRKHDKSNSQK
UniProt P98153: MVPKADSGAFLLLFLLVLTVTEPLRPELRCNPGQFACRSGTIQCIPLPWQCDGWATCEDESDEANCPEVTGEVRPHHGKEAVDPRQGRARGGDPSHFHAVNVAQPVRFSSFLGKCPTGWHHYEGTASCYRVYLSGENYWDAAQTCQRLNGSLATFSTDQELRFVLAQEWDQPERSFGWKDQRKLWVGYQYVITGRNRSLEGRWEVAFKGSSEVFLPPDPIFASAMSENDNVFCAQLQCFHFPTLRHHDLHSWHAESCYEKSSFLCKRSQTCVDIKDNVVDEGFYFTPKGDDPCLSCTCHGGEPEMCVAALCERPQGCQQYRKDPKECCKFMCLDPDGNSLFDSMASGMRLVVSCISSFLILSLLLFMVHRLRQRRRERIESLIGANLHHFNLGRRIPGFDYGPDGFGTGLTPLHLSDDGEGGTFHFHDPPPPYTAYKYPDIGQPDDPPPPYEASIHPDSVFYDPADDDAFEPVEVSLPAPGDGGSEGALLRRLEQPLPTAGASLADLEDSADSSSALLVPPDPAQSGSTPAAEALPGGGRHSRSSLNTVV
UniProt Q86SQ9: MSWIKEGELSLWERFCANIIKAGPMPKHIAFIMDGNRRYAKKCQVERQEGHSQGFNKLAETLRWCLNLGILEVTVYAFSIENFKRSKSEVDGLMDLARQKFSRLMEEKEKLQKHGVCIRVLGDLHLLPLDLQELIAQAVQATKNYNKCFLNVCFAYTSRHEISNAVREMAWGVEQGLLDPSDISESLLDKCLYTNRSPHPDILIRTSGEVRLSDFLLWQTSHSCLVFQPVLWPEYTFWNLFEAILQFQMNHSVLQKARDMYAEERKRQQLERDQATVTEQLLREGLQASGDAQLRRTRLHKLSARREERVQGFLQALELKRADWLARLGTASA
UniProt P00374: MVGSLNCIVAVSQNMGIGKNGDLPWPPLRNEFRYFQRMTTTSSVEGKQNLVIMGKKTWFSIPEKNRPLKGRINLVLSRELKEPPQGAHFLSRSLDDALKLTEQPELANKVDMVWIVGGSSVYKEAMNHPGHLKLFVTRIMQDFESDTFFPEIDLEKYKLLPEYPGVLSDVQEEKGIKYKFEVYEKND

What was measured:
Test in all cases: log2 fold change, soluble protein after heating vs DMSO (PISA); higher = thermal stabilisation; K562 cells, 10 uM, 30 min; active = over 0.2 and 3.5 SD of the protein, either way, in both replicates (recomputed)
erlotinib = compound: C#Cc1cccc(Nc2ncnc3cc(OCCOC)c(OCCOC)cc23)c1 [erlotinib]
Summary of the method: (§1)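 K562 cells at 2×10^6 cells/mL were exposed to 10 μM compound for 30 min, then aliquots were heated for 3 min across 48°C-58°C, pooled, and extracted in PBS containing 0.5% NP-40 at 4°C. The supernatant after 21,000xg for 90 min was taken as soluble protein and measured by TMTpro 16plex LC-MS/MS with channel sums equalised. Thermal stability is reported relative to control samples, with values from duplicates. Fold changes are given on a log2 scale.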

[1] = compound: C/C(=N\NC(=O)C1=CC(=CC=C1)S(=O)(=O)N2CCOCC2)/C3=C(C=CC(=C3)Cl)O
Summary of the method: as §1

[2] = compound: C1=CC(=C(C=C1Cl)C2=NC3=NC=CN=C3C(=N2)NC4=CC=NC=C4)F
Summary of the method: as §1

[3] = compound: C1=CC(=CC=C1C2=NC3=C(N2)C=C(C=C3)C(=O)N)OC4=CC=C(C=C4)Cl
Summary of the method: as §1

[4] = compound: C1=CC2=C(C=CC(=C2)/C=C\3/C(=O)NC(=NCC4=CC=CS4)S3)N=C1
Summary of the method: as §1

[5] = compound: C1=CC2=NC=CN=C2C=C1/C=C/3\C(=O)NC(=O)S3
Summary of the method: as §1

[6] = compound: C1=CC=C(C=C1)C2=NC(=C(N2)C3=CC=NC=C3)C4=CC(=C(C=C4)Cl)O
Summary of the method: as §1

[7] = compound: C1=CC=C2C(=C1)C3=NNC4=CC=CC(=C43)C2=O
Summary of the method: as §1

[8] = compound: C1CCN(C1)C(=O)NC2=CC=CC(=C2)NC3=NC=C(C(=N3)NCCC4=CN=CN4)Br
Summary of the method: as §1

[9] = compound: C1CN(CCC1(CC2=CC=C(C=C2)Cl)N)C3=NC=NC4=C3C=CN4
Summary of the method: as §1

IRAK-1-4 Inhibitor I = compound: C1COCCN1CCN2C3=CC=CC=C3N=C2NC(=O)C4=CC(=CC=C4)[N+](=O)[O-] [IRAK-1-4 Inhibitor I]
Summary of the method: as §1

ibrutinib = compound: C=CC(=O)N1CCC[C@@H](n2nc(-c3ccc(Oc4ccccc4)cc3)c3c(N)ncnc32)C1 [ibrutinib]
Summary of the method: as §1

[10] = compound: CC(=O)c1cnc2ccc(-c3cc(Cl)c(O)c(Cl)c3)nc2c1N[C@H]1CC[C@H](CN(C)C)CC1
Summary of the method: as §1

ralimetinib = compound: CC(C)(C)Cn1c(N)nc2ccc(-c3[nH]c(C(C)(C)C)nc3-c3ccc(F)cc3)nc21 [ralimetinib]
Summary of the method: as §1

[11] = compound: CC(C)(O)CC(=O)NCCn1ccc2ncnc(Nc3ccc(Oc4cccc(C(F)(F)F)c4)c(Cl)c3)c21
Summary of the method: as §1

[12] = compound: CC(C)C1=C2N=C(C=C(N2N=C1)NCC3=CC=CC=C3)NCCCCCCN
Summary of the method: as §1

[13] = compound: CC(C)C[C@@H](C=O)NC(=O)[C@H](CC(C)C)NC(=O)[C@H](CC(C)C)NC(=O)OCc1ccccc1
Summary of the method: as §1

pinometostat = compound: CC(C)N(C[C@H]1O[C@@H](n2cnc3c(N)ncnc32)[C@H](O)[C@@H]1O)[C@H]1C[C@@H](CCc2nc3cc(C(C)(C)C)ccc3[nH]2)C1 [pinometostat]
Summary of the method: as §1

[14] = compound: CC1=C(C(CC(=O)N1)C2=CC=C(C=C2)C(F)(F)F)C(=O)NC3=C(C=C4C(=C3)C=NN4)F
Summary of the method: as §1

[15] = compound: CC1=C(C2=C(C=C1)C(=O)C3=CC=CC=C3N2CCCN)C
Summary of the method: as §1

Measured: log2 fold change

DHRS4 (UniProt Q9BTZ2)
inactive: erlotinib -0.008 | [1] 0.012 | [2] 0.08 | [3] 0.027 | [4] -0.022 | [5] 0.028 | [6] -0.071 | [7] -0.012 | [8] -0.003 | [9] -0.015 | IRAK-1-4 Inhibitor I 0.068 | ibrutinib 0.027 | [10] -0.007 | ralimetinib 0.099 | [11] -0.013 | [12] -0.014 | [13] -0.024 | pinometostat -0.067 | [14] 0.026 | [15] -0.034

DKC1 (UniProt O60832)
inactive: erlotinib -0.059 | [1] -0.111 | [2] -0.155 | [3] 0.015 | [4] -0.066 | [5] 0.003 | [6] -0.047 | [7] -0.032 | [8] -0.045 | [9] -0.078 | IRAK-1-4 Inhibitor I -0.056 | ibrutinib -0.01 | [10] 0.021 | ralimetinib 0.073 | [11] 0.035 | [12] 0.146 | [13] 0.046 | pinometostat 0.105 | [14] 0 | [15] 0.153

DHRS7 (UniProt Q9Y394)
inactive: erlotinib 0.005 | [1] 0.044 | [2] 0.072 | [3] 0.058 | [4] -0.015 | [5] 0.023 | [6] 0.012 | [7] -0.024 | [8] -0.001 | [9] 0.038 | IRAK-1-4 Inhibitor I 0.005 | ibrutinib 0.024 | [10] -0.013 | ralimetinib -0.027 | [11] 0.014 | [12] 0.043 | [13] -0.026 | pinometostat -0.025 | [14] -0.031 | [15] 0.013

Taken from the results shown (two entries):
DKC1 (UniProt O60832)
inactive: erlotinib -0.059 | [1] -0.111 | [2] -0.155 | [3] 0.015 | [4] -0.066 | [5] 0.003 | [6] -0.047 | [7] -0.032 | [8] -0.045 | [9] -0.078 | IRAK-1-4 Inhibitor I -0.056 | ibrutinib -0.01 | [10] 0.021 | ralimetinib 0.073 | [11] 0.035 | [12] 0.146 | [13] 0.046 | pinometostat 0.105 | [14] 0 | [15] 0.153

DHRS7 (UniProt Q9Y394)
inactive: erlotinib 0.005 | [1] 0.044 | [2] 0.072 | [3] 0.058 | [4] -0.015 | [5] 0.023 | [6] 0.012 | [7] -0.024 | [8] -0.001 | [9] 0.038 | IRAK-1-4 Inhibitor I 0.005 | ibrutinib 0.024 | [10] -0.013 | ralimetinib -0.027 | [11] 0.014 | [12] 0.043 | [13] -0.026 | pinometostat -0.025 | [14] -0.031 | [15] 0.013

(next part)

DENND4C isoform 7 (UniProt Q5VZ89)
inactive: erlotinib 0.016 | [1] 0.106 | [2] -0.03 | [3] -0.031 | [4] 0.052 | [5] -0.003 | [6] -0.043 | [7] -0.004 | [8] -0.078 | [9] 0.023 | IRAK-1-4 Inhibitor I 0.052 | ibrutinib -0.066 | [10] -0.108 | ralimetinib 0.013 | [11] -0.092 | [12] -0.159 | [13] 0.063 | pinometostat 0.101 | [14] 0.065 | [15] 0.019

DDX59 (UniProt Q5T1V6)
inactive: erlotinib -0.055 | [1] 0.053 | [2] 0.097 | [3] -0.034 | [4] 0.03 | [5] -0.007 | [6] -0.018 | [7] -0.023 | [8] -0.019 | [9] 0 | IRAK-1-4 Inhibitor I -0.068 | ibrutinib -0.12 | [10] -0.04 | ralimetinib -0.054 | [11] -0.131 | [12] -0.015 | [13] -0.001 | pinometostat -0.064 | [14] -0.043 | [15] 0.04

DGCR2 (UniProt P98153)
inactive: erlotinib -0.006 | [1] -0.02 | [2] -0.028 | [3] 0.019 | [4] 0.073 | [5] 0.038 | [6] 0.122 | [7] -0.037 | [8] 0.007 | [9] 0.058 | IRAK-1-4 Inhibitor I 0.035 | ibrutinib 0.007 | [10] 0.051 | ralimetinib 0.062 | [11] -0.011 | [12] -0.027 | [13] 0.083 | pinometostat 0.022 | [14] 0.08 | [15] -0.046

DHDDS isoform 2 (UniProt Q86SQ9)
inactive: erlotinib 0.027 | [1] -0.011 | [2] 0 | [3] -0.03 | [4] -0.003 | [5] -0.008 | [6] -0.005 | [7] -0.022 | [8] -0.03 | [9] -0.025 | IRAK-1-4 Inhibitor I -0.116 | ibrutinib 0.001 | [10] -0.018 | ralimetinib -0.079 | [11] 0.049 | [12] 0.063 | [13] -0.064 | pinometostat -0.026 | [14] -0.021 | [15] -0.053

DHFR (UniProt P00374)
inactive: erlotinib 0.156 | [1] 0 | [2] -0.176 | [3] -0.144 | [4] 0.03 | [5] 0.043 | [6] 0.055 | [7] 0.049 | [8] -0.047 | [9] -0.015 | IRAK-1-4 Inhibitor I -0.065 | ibrutinib -0.008 | [10] -0.06 | ralimetinib 0.192 | [11] -0.044 | [12] 0.101 | [13] 0.083 | pinometostat 0.255 | [15] 0.2
